Data source: PubChem BioAssay AID1159595 (NIAID, 2016)
Shown is an unselected part of 756 reagents tested. 115 of all reagents (15%) were called active. 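Active calls cover both lowered and raised reporter signal; each score refers to one siRNA rather than a whole gene.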 The numbers tell different reagents against one gene apart. Not stated in the record: the amount of reagent.

Purpose: 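Contribution of 126 core TLR signalling genes to the Pam3CSK4 inflammatory response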 (primary screen)
System: mouse RAW264.7 macrophage reporter cells
Reagents: single siRNA against mouse genes
Timing: assayed 48 to 72 hours after siRNA transfection; ligand applied for 16 hours
Challenge: Pam3CSK4 (TLR2 ligand) for 16 hours before fixation; dose not given
Measured: 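Nuclear mCherry from a Tnf promoter reporter imaged after 16 h Pam3CSK4, 48–72 h post-transfection; background subtracted, plate median/MAD normalised, robust z-scores averaged over replicates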
Scale: Tnf reporter z-score (replicate mean): higher = stronger Tnf promoter reporter signal than negative control wells
Active means: 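Calls apply to single siRNAs, not genes: activity graded at absolute z of 1, 1.5, 2 and 2.5, and active means averaged z at or beyond ±1.5, i.e. activity score 50 or above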
Calls: active = strong change (up or down); inactive = little change

target	reagent	Tnf reporter z-score (replicate mean)	outcome
Pik3ca	1	0.683	inactive
Pik3ca	2	0.667	inactive
Pik3ca	3	0.121	inactive
Pik3ca	4	-1.29	inactive
Pik3ca	5	-1.39	inactive
Pik3ca	6	1.44	inactive
Akt2	1	-1.66	active
Akt2	2	-0.599	inactive
Akt2	3	-0.812	inactive
Akt2	4	-1.81	active
Akt2	5	-0.654	inactive
Akt2	6	-1.31	inactive
Tlr9	1	-0.738	inactive
Tlr9	2	-1.33	inactive
Tlr9	3	1.3	inactive
Tlr9	4	-0.247	inactive
Tlr9	5	-1.67	active
Tlr9	6	-0.414	inactive
Atf7	1	-1.18	inactive
Atf7	2	-0.425	inactive
Atf7	3	-0.718	inactive
Atf7	4	0.525	inactive
Atf7	5	-1.59	active
Atf7	6	-0.965	inactive
Nfkb2	1	-0.815	inactive
Nfkb2	2	-0.713	inactive
Nfkb2	3	-0.909	inactive
Nfkb2	4	-0.0189	inactive
Nfkb2	5	0.0624	inactive
Nfkb2	6	-1.98	active
Map2k7	1	1.88	active
Map2k7	2	-1.21	inactive
Map2k7	3	-1.41	inactive
Map2k7	4	-0.58	inactive
Map2k7	5	0.253	inactive
Map2k7	6	-1.06	inactive
Map3k14	1	0.578	inactive
Map3k14	2	0.822	inactive
Map3k14	3	-0.856	inactive
Map3k14	4	0.323	inactive
Map3k14	5	-1.34	inactive
Map3k14	6	-1.22	inactive
Nfkb1	1	-0.19	inactive
Nfkb1	2	-1.8	active
Nfkb1	3	-0.222	inactive
Nfkb1	4	-1.31	inactive
Nfkb1	5	-1.67	active
Nfkb1	6	-1.04	inactive

Records above whose target name begins with T or t (6):
target	reagent	Tnf reporter z-score (replicate mean)	outcome
Tlr9	1	-0.738	inactive
Tlr9	2	-1.33	inactive
Tlr9	3	1.3	inactive
Tlr9	4	-0.247	inactive
Tlr9	5	-1.67	active
Tlr9	6	-0.414	inactive
